Laboratory results as given in publication PMC7524730.
No constants are given. Whether binding was seen depends on the method and setting. Binding seen in cells or lysates may run through a third protein. These calls come from enrichment with a bait or labelling near it, and not all partners need be listed.

Sequences of proteins named here, by UniProt entry; tags and fusion partners are left off.
UniProt P28482: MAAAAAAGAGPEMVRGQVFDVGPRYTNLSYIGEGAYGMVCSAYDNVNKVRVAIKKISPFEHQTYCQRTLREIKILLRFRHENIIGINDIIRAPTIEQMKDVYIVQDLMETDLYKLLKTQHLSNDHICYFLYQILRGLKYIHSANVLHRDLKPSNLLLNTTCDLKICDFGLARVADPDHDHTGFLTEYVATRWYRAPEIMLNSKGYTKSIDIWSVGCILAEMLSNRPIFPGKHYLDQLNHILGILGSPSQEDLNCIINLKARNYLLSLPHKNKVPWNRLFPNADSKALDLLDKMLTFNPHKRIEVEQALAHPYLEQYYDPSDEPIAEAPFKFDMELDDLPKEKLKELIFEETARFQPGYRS
UniProt O14744: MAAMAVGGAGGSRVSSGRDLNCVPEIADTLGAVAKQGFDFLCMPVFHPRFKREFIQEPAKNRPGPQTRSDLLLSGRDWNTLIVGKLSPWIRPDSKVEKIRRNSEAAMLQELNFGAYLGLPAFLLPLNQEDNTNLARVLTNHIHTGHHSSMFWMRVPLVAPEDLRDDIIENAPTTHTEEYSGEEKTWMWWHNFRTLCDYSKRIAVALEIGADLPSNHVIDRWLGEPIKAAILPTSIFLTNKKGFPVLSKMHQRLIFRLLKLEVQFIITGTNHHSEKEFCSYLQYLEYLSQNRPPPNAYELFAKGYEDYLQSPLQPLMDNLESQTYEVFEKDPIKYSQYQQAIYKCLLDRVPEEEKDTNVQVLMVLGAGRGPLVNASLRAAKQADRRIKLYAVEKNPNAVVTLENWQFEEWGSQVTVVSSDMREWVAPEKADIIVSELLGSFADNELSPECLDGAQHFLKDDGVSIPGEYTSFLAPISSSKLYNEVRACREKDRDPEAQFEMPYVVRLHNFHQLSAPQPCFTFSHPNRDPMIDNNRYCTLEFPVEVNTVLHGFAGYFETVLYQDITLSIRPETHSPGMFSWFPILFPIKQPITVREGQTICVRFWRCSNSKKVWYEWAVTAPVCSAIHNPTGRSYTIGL
UniProt Q09028: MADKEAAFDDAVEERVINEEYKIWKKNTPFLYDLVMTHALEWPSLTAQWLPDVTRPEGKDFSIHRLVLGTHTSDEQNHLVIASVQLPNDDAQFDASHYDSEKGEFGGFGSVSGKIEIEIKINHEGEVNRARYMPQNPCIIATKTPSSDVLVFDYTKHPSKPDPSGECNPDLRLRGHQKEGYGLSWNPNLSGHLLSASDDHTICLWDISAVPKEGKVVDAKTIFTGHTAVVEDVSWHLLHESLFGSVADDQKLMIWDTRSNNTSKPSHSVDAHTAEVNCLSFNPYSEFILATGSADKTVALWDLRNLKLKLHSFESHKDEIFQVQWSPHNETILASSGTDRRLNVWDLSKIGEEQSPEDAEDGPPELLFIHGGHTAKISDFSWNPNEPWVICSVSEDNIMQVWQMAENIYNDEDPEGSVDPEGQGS
UniProt O14929: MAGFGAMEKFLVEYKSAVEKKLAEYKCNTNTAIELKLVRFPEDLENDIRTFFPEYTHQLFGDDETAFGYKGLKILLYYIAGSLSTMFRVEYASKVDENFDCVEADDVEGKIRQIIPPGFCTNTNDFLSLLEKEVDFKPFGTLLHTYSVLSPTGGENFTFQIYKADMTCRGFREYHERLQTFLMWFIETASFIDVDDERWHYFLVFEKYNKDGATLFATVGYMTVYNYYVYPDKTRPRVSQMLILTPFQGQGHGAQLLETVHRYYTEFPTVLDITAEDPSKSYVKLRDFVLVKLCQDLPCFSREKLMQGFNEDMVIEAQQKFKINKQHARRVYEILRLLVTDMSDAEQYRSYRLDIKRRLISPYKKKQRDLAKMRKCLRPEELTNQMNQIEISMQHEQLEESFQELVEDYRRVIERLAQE

T1: Lymphoid-specific helicase (LSH), expressed in 293T cells (human) (UniProt Q9NRZ9)
T1 sequence: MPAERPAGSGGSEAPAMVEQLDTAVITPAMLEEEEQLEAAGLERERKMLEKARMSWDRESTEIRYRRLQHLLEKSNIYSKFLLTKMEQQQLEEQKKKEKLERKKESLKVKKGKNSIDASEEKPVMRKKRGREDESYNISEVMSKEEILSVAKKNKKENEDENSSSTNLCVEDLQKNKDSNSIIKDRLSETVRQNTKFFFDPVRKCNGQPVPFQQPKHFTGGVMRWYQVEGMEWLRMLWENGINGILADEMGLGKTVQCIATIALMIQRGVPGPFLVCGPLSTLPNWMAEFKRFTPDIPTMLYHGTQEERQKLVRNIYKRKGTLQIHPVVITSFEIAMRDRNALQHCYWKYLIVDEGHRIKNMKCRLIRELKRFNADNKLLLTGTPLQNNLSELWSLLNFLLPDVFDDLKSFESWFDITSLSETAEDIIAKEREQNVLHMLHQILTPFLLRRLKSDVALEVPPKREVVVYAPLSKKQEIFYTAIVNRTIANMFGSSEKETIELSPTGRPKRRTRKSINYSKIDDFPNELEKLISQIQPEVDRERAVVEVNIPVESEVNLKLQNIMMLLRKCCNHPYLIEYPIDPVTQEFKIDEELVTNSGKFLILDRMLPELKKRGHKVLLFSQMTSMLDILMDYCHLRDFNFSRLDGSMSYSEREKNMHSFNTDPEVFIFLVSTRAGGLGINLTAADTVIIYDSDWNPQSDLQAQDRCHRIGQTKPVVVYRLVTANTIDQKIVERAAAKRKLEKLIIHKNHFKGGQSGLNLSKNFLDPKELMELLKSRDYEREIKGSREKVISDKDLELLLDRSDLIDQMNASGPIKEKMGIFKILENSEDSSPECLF

B1: minichromosome maintenance 3 (MCM3) (protein, UniProt P25205 1-808)
chain: MAGTVVLDDVELREAQRDYLDFLDDEEDQGIYQSKVRELISDNQYRLIVNVNDLRRKNEKRANRLLNNAFEELVAFQRALKDFVASIDATYAKQYEEFYVGLEGSFGSKHVSPRTLTSCFLSCVVCVEGIVTKCSLVRPKVVRSVHYCPATKKTIERRYSDLTTLVAFPSSSVYPTKDEENNPLETEYGLSVYKDHQTITIQEMPEKAPAGQLPRSVDVILDDDLVDKAKPGDRVQVVGTYRCLPGKKGGYTSGTFRTVLIACNVKQMSKDAQPSFSAEDIAKIKKFSKTRSKDIFDQLAKSLAPSIHGHDYVKKAILCLLLGGVERDLENGSHIRGDINILLIGDPSVAKSQLLRYVLCTAPRAIPTTGRGSSGVGLTAAVTTDQETGERRLEAGAMVLADRGVVCIDEFDKMSDMDRTAIHEVMEQGRVTIAKAGIHARLNARCSVLAAANPVYGRYDQYKTPMENIGLQDSLLSRFDLLFIMLDQMDPEQDREISDHVLRMHRYRAPGEQDGDAMPLGSAVDILATDDPNFSQEDQQDTQIYEKHDNLLHGTKKKKEKMVSAAFMKKYIHVAKIIKPVLTQESATYIAEEYSRLRSQDSMSSDTARTSPVTARTLETLIRLATAHAKARMSKTVDLQDAEEAVELVQYAYFKKVLEKEKKRKKRSEDESETEDEEEKSQEDQEQKRKRRKTRQPDAKDGDSYDPYDFSDTEEEMPQVHTPKTADSQETKESQKVELSESRLKAFKVALLDVFREAHAQSIGMNRLTESINRDSEEPFSSVEIQAALSKMQDDNQVMVSEGIIFLI

Target: T1, Lymphoid-specific helicase (LSH), expressed in 293T cells (human)
Experiment: affinity purification with mass spectrometry; IP with an anti-LSH antibody from 293T cells stably expressing LSH, then mass spectrometry

binding	Molecule
binds	MAPK1 (from UniProt P28482 1-360) (enzyme)
binds	Protein arginine methyltransferase 5 (PRMT5), in 293T cells expressing LSH (from UniProt O14744 1-637) (enzyme)
binds	RB binding protein 4 (RBBP4) (from UniProt Q09028 1-425)
binds	histone acetyltransferase 1 (HAT1) (from UniProt O14929 1-419) (enzyme)
binds	B1
